# Laboratory results as given in patent publication US20160024199A1.
# B1: m708.5 scFv (scFv, V domains shown)
# VH: QVQLQQLGAEVKMPGSSVKVSCKASGGTFSSYAISWVRQAPGQGLEWMGGIIPTLGIVKYAQKFQGRVTITADKSTSTAYMELSSLGSEDTAVYYCAGGPRGYSYNFDNWGQGTLVTVSS
# VL: DIQMTQSPSSLSASVGDRVTIVCRASQTISRYVNWYQQKPGKAPKLLIYAASSLQSGVSSRFSGSGSGTEFALTISSLQPEDFATYFCQQTYSPPITFGQGTRLEIKQ
# B2: IgG1 m708.5 (antibody, V domains shown)
# VH: B1 VH
# VL: B1 VL
# B3: IgG1 m708.2 (antibody, V domains shown)
# VH: B1 VH with L7P, M13K, T54I, V58A, K59N, K74E, G87R, G98R, N109Y
# VL: B1 VL with V22A, V33L, A72T, Q108R
# B4: m708.2 (phage-displayed Fab clone from the light chain shuffled library) (Fab, V domains shown)
# VH: B1 VH with L7P, M13K, T54I, V58A, K59N, K74E, G87R, G98R, N109Y
# VL: B1 VL with V22A, V33L, A72T, Q108R
# Columns and labels:
# [1] = molecular target: recombinant human insulin-like growth factor I (IGF-I) (human); experiment: flow cytometry blocking assay: scFv pre-incubated with biotinylated IGF-I, mixture added to MCF-7 cells (IGF-IR and IR), streptavidin-PE; scFv concentration not given
# [2] = molecular target: recombinant human insulin-like growth factor I (IGF-I) (human); experiment: ELISA, 10 nM IgG on coated IGF-I, detected with HRP anti-human Fc antibody
# [3] = molecular target: recombinant human insulin-like growth factor I (IGF-I) (human); experiment: flow cytometry blocking assay: IgG pre-incubated with biotinylated IGF-I, mixture added to MCF-7 cells (IGF-IR and IR), streptavidin-PE; IgG concentration not given
# [4] = molecular target: recombinant human insulin-like growth factor I (IGF-I) (human); experiment: ELISA, serial dilutions of IgG on coated IGF-I, detected with HRP anti-human Fc antibody
# Folate receptor β = experiment: ELISA, 10 nM IgG on the coated irrelevant antigen, detected with HRP anti-human Fc antibody
# Mesothelin = experiment: as above
# [5] = molecular target: recombinant human insulin-like growth factor I (IGF-I) (human); experiment: ELISA after 9 days in human sera at 37 C
# [6] = molecular target: recombinant human insulin-like growth factor I (IGF-I) (human); experiment: ELISA on coated IGF-I after incubation of the antibody with an equal volume of human serum at 37 C for 0 to 9 days
# [7] = molecular target: recombinant human insulin-like growth factor I (IGF-I) (human); experiment: ELISA, IgG on coated antigen
# [8] = molecular target: recombinant human insulin-like growth factor I (IGF-I) (human); experiment: flow cytometry blocking assay: 5 nM biotinylated IGF-I on MCF-7 cells (IGF-IR and IR) in the presence of the antibody, streptavidin-PE; antibody concentration not given
# [9] = molecular target: recombinant human insulin-like growth factor I (IGF-I) (human); experiment: phage ELISA
binder,measurement,setting,value
B1,binding,[1],binds
B2,binding,[2],binds
same,binding,[3],binds
same,binding,[4],binds
same,binding,Folate receptor β,no binding (tested: 10 nM)
same,binding,Mesothelin,no binding (tested: 10 nM)
same,binding,[5],binds
same,binding,[6],binds
same,binding,[7],binds
same,binding,[8],binds
B3,binding,[4],binds
same,binding,[7],binds
B4,binding,[9],binds

# Residue numbers refer to the chain shown, from its start. These are yes or no findings as the source states them, for the method shown. For some of these results: Binding calls can cover weak binding; strength is not graded here.
